In US20070072246A1, “Cell-based assays for determining drug action” (priority 2003, published 2007):
At least one structure is not confirmed: it was looked up by name or label, or the drawing left a doubt.

Tested on: primary human endothelial cells (EC)
Assay: 3C system: endothelial cells stimulated with IL-1β, TNF-α and IFN-γ, readout parameters by cell-based ELISA
Conditions: 24 hr cytokine activation; non-toxic concentrations
Protocol: Cell culture. Human umbilical vein endothelial cells (HUVEC) were obtained from Cascade Biologics (Portland, Oreg.) and cultured in EGM-2 medium containing supplements provided by the manufacturer and 2% heat inactivated fetal bovine serum (Hyclone, Logan, Utah) and subcultured with 0.05% trypsin-0.53 mM EDTA (Mediatech, Herndon, Va.) as described by the manufacturer. […] Experiments were performed by culturing HUVEC in microtiter plates (Falcon; BD Biosciences), in the presence of cytokines (IL-1β, 1 ng/ml; TNF-α, 5 ng/ml; and IFN-γ, 100 ng/ml), activators (SAg, 20 ng/ml or LPS, 0.2 ng/ml), and/or PBMC (7.5×10^4) for the indicated times. Drugs were added 1 hr before stimulation and were present during the whole 24 hr stimulation period.
Cell-based ELISAs. […] Briefly, microtiter plates containing treated and stimulated HUVEC (or HUVEC/PBMC) were blocked, and then incubated with primary antibodies or isotype control antibodies (0.01-0.5 μg/ml) for 1 hr. […] Plates were washed and developed with TMB substrate (Clinical Science Products, Mansfield, Mass.) and the absorbance (OD) was read at 450 nm (subtracting the background absorbance at 650 nm) with a Molecular Devices SpectraMAX 190 plate reader (Molecular Devices, Sunnyvale, Calif.).
Data analysis. Mean OD values for each parameter were calculated from triplicate samples per experiment. […]

C=CC[C@@H]1/C=C(\C)C[C@H](C)C[C@H](OC)[C@H]2O[C@@](O)(C(=O)C(=O)N3CCCC[C@H]3C(=O)O[C@H](/C(C)=C/[C@@H]3CC[C@@H](O)[C@H](OC)C3)[C@H](C)[C@@H](O)CC1=O)[C@H](C)C[C@@H]2OC [FK-506]
activity in the 3C (endothelial inflammation) system: inactive or only weakly active
